Results as given in paper PMC3652797.
No constants are given. Whether binding was seen depends on the method and setting. In cells and extracts the contact can be indirect. Some entries that bind do so weakly or less than the wild type. For some of these results: Where a sequence is shown, tags or fusion partners need not be part of it.

Protein sequences, listed by entry. Tags and fused reporters are not part of them. Lines headed by an entry give the natural chain unless they say otherwise; changes in a name come on top.
UniProt Q03391: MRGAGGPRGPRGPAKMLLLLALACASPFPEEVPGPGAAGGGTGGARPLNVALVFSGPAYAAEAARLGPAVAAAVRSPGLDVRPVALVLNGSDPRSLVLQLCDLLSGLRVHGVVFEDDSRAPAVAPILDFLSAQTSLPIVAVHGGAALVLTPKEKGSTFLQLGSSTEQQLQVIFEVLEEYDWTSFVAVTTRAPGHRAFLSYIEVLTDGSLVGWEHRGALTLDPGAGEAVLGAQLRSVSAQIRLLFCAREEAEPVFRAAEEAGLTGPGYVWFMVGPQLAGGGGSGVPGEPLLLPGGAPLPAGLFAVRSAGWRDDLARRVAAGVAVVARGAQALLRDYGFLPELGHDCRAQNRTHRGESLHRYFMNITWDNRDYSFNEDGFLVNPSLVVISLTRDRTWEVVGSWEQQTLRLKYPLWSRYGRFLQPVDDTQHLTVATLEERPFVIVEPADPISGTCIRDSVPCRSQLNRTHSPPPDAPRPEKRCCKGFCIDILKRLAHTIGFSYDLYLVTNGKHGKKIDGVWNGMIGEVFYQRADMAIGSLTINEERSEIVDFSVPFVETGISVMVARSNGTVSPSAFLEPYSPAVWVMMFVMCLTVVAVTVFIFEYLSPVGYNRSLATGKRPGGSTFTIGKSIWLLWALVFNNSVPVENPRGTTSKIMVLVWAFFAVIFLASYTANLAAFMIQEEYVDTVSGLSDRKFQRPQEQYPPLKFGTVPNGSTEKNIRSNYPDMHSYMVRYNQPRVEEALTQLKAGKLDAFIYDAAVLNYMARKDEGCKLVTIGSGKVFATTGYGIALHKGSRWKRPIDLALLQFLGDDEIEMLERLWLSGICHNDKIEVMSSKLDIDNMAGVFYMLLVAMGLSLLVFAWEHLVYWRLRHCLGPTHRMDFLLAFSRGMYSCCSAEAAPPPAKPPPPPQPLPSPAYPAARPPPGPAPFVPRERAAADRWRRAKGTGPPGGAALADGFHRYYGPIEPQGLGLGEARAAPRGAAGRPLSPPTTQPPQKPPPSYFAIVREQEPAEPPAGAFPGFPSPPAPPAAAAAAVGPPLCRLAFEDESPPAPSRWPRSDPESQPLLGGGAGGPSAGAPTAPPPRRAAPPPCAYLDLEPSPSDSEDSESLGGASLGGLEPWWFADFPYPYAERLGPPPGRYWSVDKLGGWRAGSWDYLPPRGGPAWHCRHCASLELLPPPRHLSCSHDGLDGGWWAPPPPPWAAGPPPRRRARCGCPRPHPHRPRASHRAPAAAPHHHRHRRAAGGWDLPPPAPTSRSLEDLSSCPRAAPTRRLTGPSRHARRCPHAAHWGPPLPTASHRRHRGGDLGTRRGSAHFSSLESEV

Assays:
[1] = target: NR2D subunit of the NMDA receptor, endogenous in mouse embryonic brain (mouse (endogenous in embryonic day 18 brain)) (UniProt Q03391); assay: co-IP; endogenous proteins, mouse embryonic day 18 brain homogenate (300 mM NaCl, 5 mM Tris-Cl pH 7.5, 0.5% Triton X-100); anti-NR2D or anti-Dock3 antibody, protein G Sepharose, 4°C; NR2D-/- brain as control
[2] = target: T1, Myc-tagged Dock3 interaction domain (amino acids 796-1154) (mouse) (UniProt Q8CIQ7); assay: co-IP; HEK293T cells co-transfected with Myc-Dock3 SID and EGFP-NR2D CT; lysates (1% NP-40, 0.5% Na-deoxycholate, 150 mM NaCl) precipitated with anti-GFP or anti-Myc magnetic beads; blots with anti-Myc or anti-GFP
T1 sequence: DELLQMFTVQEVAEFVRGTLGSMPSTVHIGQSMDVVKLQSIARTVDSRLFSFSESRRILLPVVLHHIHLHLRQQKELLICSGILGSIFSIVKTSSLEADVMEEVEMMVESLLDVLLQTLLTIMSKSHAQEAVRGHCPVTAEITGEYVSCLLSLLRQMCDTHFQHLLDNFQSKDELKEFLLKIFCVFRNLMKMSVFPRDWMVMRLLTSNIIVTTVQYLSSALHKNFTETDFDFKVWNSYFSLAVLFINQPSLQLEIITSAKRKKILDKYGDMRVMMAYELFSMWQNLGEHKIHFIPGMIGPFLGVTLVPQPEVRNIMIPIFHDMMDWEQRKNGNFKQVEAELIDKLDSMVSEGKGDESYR

[3] = target: Dedicator of cytokinesis 3 (Dock3), endogenous in mouse embryonic brain (mouse (endogenous in embryonic day 18 brain)) (UniProt Q8CIQ7); assay: co-IP; endogenous proteins, mouse embryonic day 18 brain homogenate (300 mM NaCl, 5 mM Tris-Cl pH 7.5, 0.5% Triton X-100); anti-NR2D or anti-Dock3 antibody, protein G Sepharose, 4°C; NR2D-/- brain as control
[4] = target: EGFP-tagged NR2D C-terminus (amino acids 895-1323) (mouse) (UniProt Q03391); assay: co-IP; HEK293T cells co-transfected with Myc-Dock3 SID and EGFP-NR2D CT; lysates (1% NP-40, 0.5% Na-deoxycholate, 150 mM NaCl) precipitated with anti-GFP or anti-Myc magnetic beads; blots with anti-Myc or anti-GFP

“Dedicator of cytokinesis 3 (Dock3), endogenous in mouse embryonic brain (from UniProt Q8CIQ7 1-2027)” was tested, and the binding [1] was “binds”.

In the case of “EGFP-tagged NR2D C-terminus (amino acids 895-1323) (from UniProt Q03391 895-1323) (domain or fragment)”, the binding [2] is reported as “binds”.

“NR2D subunit of the NMDA receptor, endogenous in mouse embryonic brain (from UniProt Q03391 28-1323)” was tested, and the binding [3] was “binds”.

B1: Myc-tagged Dock3 interaction domain (amino acids 796-1154) (domain or fragment, UniProt Q8CIQ7 796-1154)
chain: T1 sequence
B1 was tested, and the binding [4] was “binds”.
